PubChem BioAssay AID652243 | Drosophila RNAi Screening Center, 2013

Aim: 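Fly regulators of androgen-dependent reporter output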 (primary screen)
System: Drosophila S2R+ cells
Knock-down reagent: long dsRNA against Drosophila genes
Duration: 72 h (48 h, then 24 h hormone)
Treatment: synthetic androgen R1881 at 10 nM for 24 h
Detection: 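Per-well raw luminescence of the androgen-driven firefly reporter and of the Renilla control, two replicates each, without normalisation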
Reading the numbers: firefly reporter light: higher = more light from androgen-responsive reporter; Renilla control light: higher = more constitutive control signal (cell number, transfection)
Rule for the call: 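Hit when the log firefly-to-Renilla ratio dropped or increased by a fixed fold versus the mean of GFP or LacZ controls across duplicate plates; lowering cut given as 1.5 and as 3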
Meaning of the calls: active = hit: reporter lowered or raised; inactive = no hit
The deposit covers about 24,000 reagents; shown is a random part of those that have a named target and a result. Of all reagents, 246 (1%) are marked active. 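Plates not normalised; calls are printed but the firefly/Renilla ratio behind them is not deposited; fold cut for lowering reported inconsistently.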 Raw values are not corrected between plates. The record does not give: the amount of reagent.

Tim17b1 [DRSC12179] gave firefly reporter light, replicate 1 = 33106; firefly reporter light, replicate 2 = 45851; Renilla control light, replicate 1 = 1.34e6; Renilla control light, replicate 2 = 9.29e5; inactive.
After knock-down of Or49a [DRSC07493], the screen gave firefly reporter light, replicate 1 = 2.74e5; firefly reporter light, replicate 2 = 2.04e5; Renilla control light, replicate 1 = 1.52e6; Renilla control light, replicate 2 = 1.37e6; inactive.
Depletion of CG6333 [DRSC10626] resulted in: firefly reporter light, replicate 1 = 3.28e5; firefly reporter light, replicate 2 = 2.24e5; Renilla control light, replicate 1 = 3.68e6; Renilla control light, replicate 2 = 3.01e6; inactive.
Against Mcm3 [DRSC18679] the deposit lists firefly reporter light, replicate 1 = 85534; firefly reporter light, replicate 2 = 1.10e5; Renilla control light, replicate 1 = 6.67e5; Renilla control light, replicate 2 = 4.65e5; inactive.
Depletion of Mcm3 [DRSC25729] gave: firefly reporter light, replicate 1 = 6.86e5; firefly reporter light, replicate 2 = 5.02e5; Renilla control light, replicate 1 = 5.59e5; Renilla control light, replicate 2 = 6.36e5; inactive.
After knock-down of CG43106 [DRSC04279], the screen gave firefly reporter light, replicate 1 = 3.26e5; firefly reporter light, replicate 2 = 3.44e5; Renilla control light, replicate 1 = 2.45e6; Renilla control light, replicate 2 = 2.05e6; inactive.
alka [DRSC06136] scored firefly reporter light, replicate 1 = 2.00e5; firefly reporter light, replicate 2 = 1.53e5; Renilla control light, replicate 1 = 1.49e6; Renilla control light, replicate 2 = 1.34e6; inactive.
btd [DRSC18747] gave firefly reporter light, replicate 1 = 2.99e5; firefly reporter light, replicate 2 = 3.66e5; Renilla control light, replicate 1 = 2.90e6; Renilla control light, replicate 2 = 2.49e6; inactive.
After knock-down of btd [DRSC29060], the record shows firefly reporter light, replicate 1 = 6.21e5; firefly reporter light, replicate 2 = 5.20e5; Renilla control light, replicate 1 = 1.43e6; Renilla control light, replicate 2 = 1.36e6; inactive.
For CG8892 [DRSC03121], the values are firefly reporter light, replicate 1 = 8.84e5; firefly reporter light, replicate 2 = 1.01e6; Renilla control light, replicate 1 = 1.50e6; Renilla control light, replicate 2 = 1.76e6; inactive.
Knock-down of Dhc98D [DRSC16645] came out at: firefly reporter light, replicate 1 = 1.30e5; firefly reporter light, replicate 2 = 1.27e5; Renilla control light, replicate 1 = 1.41e6; Renilla control light, replicate 2 = 2.10e6; inactive.
With knock-down of Dhc98D [DRSC27784], the record shows firefly reporter light, replicate 1 = 2.35e5; firefly reporter light, replicate 2 = 2.41e5; Renilla control light, replicate 1 = 4.82e5; Renilla control light, replicate 2 = 7.16e5; inactive.
Knock-down of CG7448 (retired record) [DRSC11828] gave: firefly reporter light, replicate 1 = 72875; firefly reporter light, replicate 2 = 81325; Renilla control light, replicate 1 = 5.45e5; Renilla control light, replicate 2 = 5.41e5; inactive.
Silencing of CG7448 (retired record) [DRSC22485] came out at: firefly reporter light, replicate 1 = 5.76e5; firefly reporter light, replicate 2 = 5.62e5; Renilla control light, replicate 1 = 1.52e6; Renilla control light, replicate 2 = 1.83e6; inactive.
CG11373 [DRSC12170] gave firefly reporter light, replicate 1 = 87779; firefly reporter light, replicate 2 = 96879; Renilla control light, replicate 1 = 1.30e6; Renilla control light, replicate 2 = 1.10e6; inactive.
For CG32201 [DRSC22452] the deposit lists firefly reporter light, replicate 1 = 6.76e5; firefly reporter light, replicate 2 = 9.42e5; Renilla control light, replicate 1 = 8.54e5; Renilla control light, replicate 2 = 1.72e6; inactive.
After knock-down of acj6 [DRSC20304], the screen gave firefly reporter light, replicate 1 = 1.18e5; firefly reporter light, replicate 2 = 1.33e5; Renilla control light, replicate 1 = 9.15e5; Renilla control light, replicate 2 = 7.09e5; inactive.
With knock-down of acj6 [DRSC29003], the screen gave firefly reporter light, replicate 1 = 4.60e5; firefly reporter light, replicate 2 = 4.40e5; Renilla control light, replicate 1 = 1.14e6; Renilla control light, replicate 2 = 1.27e6; inactive.
acj6 [DRSC36590] gave inactive.
Against Slip1 [DRSC17146] the deposit lists firefly reporter light, replicate 1 = 1.38e5; firefly reporter light, replicate 2 = 1.29e5; Renilla control light, replicate 1 = 9.06e5; Renilla control light, replicate 2 = 5.39e5; inactive.
Depletion of Pcyt2 [DRSC08531] came out at: firefly reporter light, replicate 1 = 9.96e5; firefly reporter light, replicate 2 = 1.15e6; Renilla control light, replicate 1 = 1.63e6; Renilla control light, replicate 2 = 2.57e6; inactive.
With knock-down of Lcp65Ag3 [DRSC10345] the results were firefly reporter light, replicate 1 = 6.26e5; firefly reporter light, replicate 2 = 6.68e5; Renilla control light, replicate 1 = 2.48e6; Renilla control light, replicate 2 = 1.53e6; inactive.
Silencing of UBL3 [DRSC23292] resulted in: firefly reporter light, replicate 1 = 8.40e5; firefly reporter light, replicate 2 = 9.47e5; Renilla control light, replicate 1 = 6.93e5; Renilla control light, replicate 2 = 6.79e5; inactive.
Against CG42562 [DRSC06453], the entry reads firefly reporter light, replicate 1 = 1.09e5; firefly reporter light, replicate 2 = 1.29e5; Renilla control light, replicate 1 = 2.57e6; Renilla control light, replicate 2 = 2.57e6; inactive.
CG34031 [DRSC37860] showed firefly reporter light, replicate 1 = 5.64e5; firefly reporter light, replicate 2 = 4.65e5; Renilla control light, replicate 1 = 7.21e5; Renilla control light, replicate 2 = 1.20e6; inactive.
Against CG31816 [DRSC01547] the deposit lists firefly reporter light, replicate 1 = 3.04e5; firefly reporter light, replicate 2 = 2.83e5; Renilla control light, replicate 1 = 7.51e5; Renilla control light, replicate 2 = 7.80e5; inactive.
Against Polr3A [DRSC19766], the entry reads firefly reporter light, replicate 1 = 5.24e5; firefly reporter light, replicate 2 = 5.34e5; Renilla control light, replicate 1 = 4.33e6; Renilla control light, replicate 2 = 3.78e6; inactive.
